This is an account of results in publication PMC7188304.

The chains behind the UniProt entries cited, without tags or fusion partners.
UniProt Q9HB90: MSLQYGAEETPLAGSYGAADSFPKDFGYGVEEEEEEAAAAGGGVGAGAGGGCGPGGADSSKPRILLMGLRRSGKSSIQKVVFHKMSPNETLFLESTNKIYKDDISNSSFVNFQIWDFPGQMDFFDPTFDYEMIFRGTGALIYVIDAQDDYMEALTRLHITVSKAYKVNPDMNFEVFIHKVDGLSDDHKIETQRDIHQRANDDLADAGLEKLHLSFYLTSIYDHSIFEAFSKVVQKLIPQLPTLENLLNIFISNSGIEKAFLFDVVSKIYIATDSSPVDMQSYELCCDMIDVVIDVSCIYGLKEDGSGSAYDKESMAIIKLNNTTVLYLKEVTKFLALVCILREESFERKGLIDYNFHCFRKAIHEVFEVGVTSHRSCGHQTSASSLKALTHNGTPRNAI
UniProt Q8N122: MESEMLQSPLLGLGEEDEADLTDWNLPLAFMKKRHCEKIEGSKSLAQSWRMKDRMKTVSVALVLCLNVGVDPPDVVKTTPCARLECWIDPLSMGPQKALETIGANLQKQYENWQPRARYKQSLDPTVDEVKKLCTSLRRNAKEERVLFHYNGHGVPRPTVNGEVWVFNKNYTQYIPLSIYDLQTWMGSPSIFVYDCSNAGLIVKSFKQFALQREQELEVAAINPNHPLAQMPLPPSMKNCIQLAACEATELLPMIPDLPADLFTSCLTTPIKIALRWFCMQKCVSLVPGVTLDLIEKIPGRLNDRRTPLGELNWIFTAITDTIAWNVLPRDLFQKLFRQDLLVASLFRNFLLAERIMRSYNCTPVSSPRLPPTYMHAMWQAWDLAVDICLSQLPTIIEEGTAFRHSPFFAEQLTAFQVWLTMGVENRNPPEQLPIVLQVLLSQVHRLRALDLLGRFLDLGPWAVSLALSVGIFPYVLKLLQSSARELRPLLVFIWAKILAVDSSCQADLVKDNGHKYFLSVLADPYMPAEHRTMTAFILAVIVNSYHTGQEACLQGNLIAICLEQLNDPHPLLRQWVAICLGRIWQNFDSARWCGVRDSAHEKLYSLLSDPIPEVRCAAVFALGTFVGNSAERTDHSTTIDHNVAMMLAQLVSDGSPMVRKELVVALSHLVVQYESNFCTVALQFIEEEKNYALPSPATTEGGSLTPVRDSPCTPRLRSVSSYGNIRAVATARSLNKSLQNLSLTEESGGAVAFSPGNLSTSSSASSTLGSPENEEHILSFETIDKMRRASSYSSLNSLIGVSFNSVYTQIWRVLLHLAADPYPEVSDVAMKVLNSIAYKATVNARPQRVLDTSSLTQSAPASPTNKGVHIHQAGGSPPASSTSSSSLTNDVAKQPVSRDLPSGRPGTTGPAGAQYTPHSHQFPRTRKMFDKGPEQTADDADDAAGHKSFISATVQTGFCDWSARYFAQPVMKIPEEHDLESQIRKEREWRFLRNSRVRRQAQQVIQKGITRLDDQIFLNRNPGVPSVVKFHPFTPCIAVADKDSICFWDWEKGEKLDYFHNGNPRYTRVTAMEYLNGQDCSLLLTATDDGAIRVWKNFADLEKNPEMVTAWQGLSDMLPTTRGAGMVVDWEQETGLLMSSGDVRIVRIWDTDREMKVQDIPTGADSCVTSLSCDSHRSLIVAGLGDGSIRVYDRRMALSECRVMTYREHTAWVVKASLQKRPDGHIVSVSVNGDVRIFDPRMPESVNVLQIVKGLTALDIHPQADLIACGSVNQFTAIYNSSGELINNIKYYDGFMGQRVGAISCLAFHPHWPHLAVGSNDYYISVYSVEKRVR
UniProt Q7L523: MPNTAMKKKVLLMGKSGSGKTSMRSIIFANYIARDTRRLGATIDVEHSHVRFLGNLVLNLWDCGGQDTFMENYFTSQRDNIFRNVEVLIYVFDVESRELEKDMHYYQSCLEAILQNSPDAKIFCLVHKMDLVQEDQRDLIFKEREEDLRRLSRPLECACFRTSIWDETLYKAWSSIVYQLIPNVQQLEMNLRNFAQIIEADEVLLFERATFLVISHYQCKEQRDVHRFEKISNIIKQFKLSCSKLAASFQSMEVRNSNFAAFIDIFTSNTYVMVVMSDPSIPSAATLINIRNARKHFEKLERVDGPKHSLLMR

No constants are given. Whether binding was seen depends on the method and setting. In cells and extracts the contact can be indirect. Some binding calls cover weakened binding; strength is not graded here. For part of these data: Tags and fused reporters may be left off the sequences shown.

Assay [1] concerns the target T1, endogenous C9orf72 (human (endogenous in HEK293)) (UniProt Q96LT7).
T1 sequence: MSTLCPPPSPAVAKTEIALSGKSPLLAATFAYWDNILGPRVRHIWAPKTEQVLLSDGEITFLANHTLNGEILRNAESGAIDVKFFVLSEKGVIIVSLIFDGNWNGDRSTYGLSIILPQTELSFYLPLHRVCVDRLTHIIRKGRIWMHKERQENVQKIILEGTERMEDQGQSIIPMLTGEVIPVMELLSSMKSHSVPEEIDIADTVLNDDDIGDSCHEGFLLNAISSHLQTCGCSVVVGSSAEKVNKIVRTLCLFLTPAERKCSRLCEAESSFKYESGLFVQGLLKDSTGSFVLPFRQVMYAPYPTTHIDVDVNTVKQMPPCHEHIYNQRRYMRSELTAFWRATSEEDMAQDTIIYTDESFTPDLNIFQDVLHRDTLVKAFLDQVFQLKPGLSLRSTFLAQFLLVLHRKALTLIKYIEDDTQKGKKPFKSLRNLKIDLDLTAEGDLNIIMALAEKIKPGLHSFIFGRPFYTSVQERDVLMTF
Nature of the assay: co-IP; endogenous proteins of HEK293 cells; C9orf72 immunoprecipitates in NP-40 lysis buffer, protein A/G magnetic beads; western blotting with the quick western kit. Background: A western blot detects proteins with antibodies after separation by electrophoresis.

A further assay addresses T2, C9orf72-Flag (human) (UniProt Q96LT7).
T2 sequence: T1 sequence
Nature of the assay: co-IP; HEK293 cells co-transfected, lysates 48 hr post-transfection in NP-40 lysis buffer (20 mM Tris-HCl, 150 mM NaCl, 1% NP-40, 2 mM EDTA); IgG, anti-FLAG or anti-HA antibody overnight at 4°C, protein A/G magnetic beads; immunoblot.

Turning to “endogenous RagC (from UniProt Q9HB90 1-399)”, the binding entry in assay [1] is on record as “binds”.

With myc-Raptor (from UniProt Q8N122 1-1335), in the assay with C9orf72-Flag (human), the binding result was “binds”.

“endogenous RagA (from UniProt Q7L523 1-313)”: in assay [1], the binding result was “binds”.
